# In paper doi:10.64898/2025.12.11.693769:
# Target: DacA-luciN (Streptococcus mutans)
# Assay: split reporter
binder,measurement,value
"723-luciC (protein, UniProt Q8DV01 1-893) MFKKQKRDSFYVQDEKTVLSGLESSKKGLTSTQAKQRLADYGYNELEEDEKRTILAKFIDQFKDLMIIILLVAAALSVITEGMGGLTDAIIILVVVVLNAAFGVYQEGQAEAAIEALKSMSSPHARVRRDGHVTEIDSKELVPGDVVLLEAGDVVPADMRLLEAASLKIEEAALTGESVPVEKSVTVAIASDAGIGDRLNMAYQNSNVTYGRGMGVVTNTGMYTEVGHIAGMLANADETDTPLKQSLDNLSKVLTYVIIIIAIITCLVGIFVRHEEPLEGLMVAVALAVAAIPEGLPAIVTVVLSLGTKTLAKRQSIVRKLPAVETLGSTEIIASDKTGTLTMNQMTVEKVYYNGRLVDANDDIDVNNMALRVMNFANDSKVDANGKLIGDPTETALVQYGFDHNFDIREVLKAELRVAELPFDSDRKLMSTIHKLDGEKYLIAVKGAPDQLLKRITQIEIDGSIRPITEDDKKAILDMNKSLAKQALRVLMIAYKYESEIPKLETAVVENDLIFAGLVGMIDPERPEAAEAVHVAKEAGIRPIMITGDHQDTAEAIAKRLGIIDDDGIDHVFTGAELNELSDEEFQKVFKQYSVYARVSPEHKVRIVKAWQNDGKIVAMTGDGVNDAPSLKTADIGIGMGITGTEVSKGASDMVLADDNFATIIVAVEEGRKVFSNIQKSIQYLLSANMAEVFTIFFATLFGWDVLQPVHLLWINLVTDTLPAIALGVEPAEPGVMTHKPRGRKSSFFSGGVMGAIIYQGILQTLLVLGVYGWAVFFPEHATRTEIHADALTMAFATLGLIQLVHAYNVKSVYQSIFKVGFFKNKTFNWALPTALIIMLATIVIPGFNRFFHVSHLSVTQWCVVVGGSLAMFVIVEIVKAIQRVLGQDQKAI",binding,binds
"GapC-luciC (enzyme, UniProt Q8DVV3 1-337) MVVKVGINGFGRIGRLAFRRIQNVEGVEVTRINDLTDPNMLAHLLKYDSTQGRFDGNVEVKEGGFEVNGKFVKVSAERDPEQIDWAADGVEIVLEATGFFASKAAAEKHLHANGGAKKVVITAPGGNDIKTIVFNTNHDVLDGTETVISGASCTTNCLAPMAKALHDNFSIKEGLMTTIHAYTGDQMVLDGPHRKGDLRRARAAAANIVPNSTGAAKAIGLVIPELNGKLDGAAQRVPVPTGSVTELVAVLDKKVTVDEVNAAMKAAANESYGYTEDPIVSSDIVGMSFGSLFDATQTKVLDVDGKQLVKVVSWYDNEMSYTSQLVRTLEYFAKIAK",binding,binds

# Results are given in words; binding and its absence hold for the method and conditions named. Binding seen in cells or lysates may run through a third protein. A result given as binding can be weak or reduced; the word gives no strength. Tags and fused reporters may be left off the sequences shown.
